Laboratory results reported in publication PMC9708791.
No constants are given. Whether binding was seen depends on the method and setting. Binding seen in cells or lysates may run through a third protein. Some entries that bind do so weakly or less than the wild type. For some assays here: Tags and fused reporters may be left off the sequences shown.

By UniProt entry, the sequences of proteins in these tests, tags left out.
UniProt Q9WV60: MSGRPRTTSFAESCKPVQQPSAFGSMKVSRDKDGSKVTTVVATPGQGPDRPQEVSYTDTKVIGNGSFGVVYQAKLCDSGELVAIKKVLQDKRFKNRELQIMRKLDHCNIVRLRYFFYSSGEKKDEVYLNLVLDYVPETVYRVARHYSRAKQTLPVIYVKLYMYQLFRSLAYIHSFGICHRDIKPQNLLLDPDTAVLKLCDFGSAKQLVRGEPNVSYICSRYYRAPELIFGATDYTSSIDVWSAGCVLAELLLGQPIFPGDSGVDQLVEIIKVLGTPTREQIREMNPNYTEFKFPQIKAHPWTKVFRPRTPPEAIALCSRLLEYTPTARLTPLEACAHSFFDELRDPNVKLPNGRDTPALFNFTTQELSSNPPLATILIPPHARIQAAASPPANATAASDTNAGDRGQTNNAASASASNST
UniProt P49841: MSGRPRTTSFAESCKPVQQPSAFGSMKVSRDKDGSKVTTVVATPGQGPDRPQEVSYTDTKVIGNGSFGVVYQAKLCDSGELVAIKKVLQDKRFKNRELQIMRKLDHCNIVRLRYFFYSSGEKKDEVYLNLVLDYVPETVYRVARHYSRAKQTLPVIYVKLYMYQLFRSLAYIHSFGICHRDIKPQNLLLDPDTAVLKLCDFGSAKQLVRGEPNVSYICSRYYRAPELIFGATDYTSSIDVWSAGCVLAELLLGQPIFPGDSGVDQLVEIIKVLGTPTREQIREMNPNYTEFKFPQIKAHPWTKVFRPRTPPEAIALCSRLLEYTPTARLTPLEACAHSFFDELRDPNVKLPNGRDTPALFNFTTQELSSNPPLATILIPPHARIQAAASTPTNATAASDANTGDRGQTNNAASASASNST
UniProt O54943: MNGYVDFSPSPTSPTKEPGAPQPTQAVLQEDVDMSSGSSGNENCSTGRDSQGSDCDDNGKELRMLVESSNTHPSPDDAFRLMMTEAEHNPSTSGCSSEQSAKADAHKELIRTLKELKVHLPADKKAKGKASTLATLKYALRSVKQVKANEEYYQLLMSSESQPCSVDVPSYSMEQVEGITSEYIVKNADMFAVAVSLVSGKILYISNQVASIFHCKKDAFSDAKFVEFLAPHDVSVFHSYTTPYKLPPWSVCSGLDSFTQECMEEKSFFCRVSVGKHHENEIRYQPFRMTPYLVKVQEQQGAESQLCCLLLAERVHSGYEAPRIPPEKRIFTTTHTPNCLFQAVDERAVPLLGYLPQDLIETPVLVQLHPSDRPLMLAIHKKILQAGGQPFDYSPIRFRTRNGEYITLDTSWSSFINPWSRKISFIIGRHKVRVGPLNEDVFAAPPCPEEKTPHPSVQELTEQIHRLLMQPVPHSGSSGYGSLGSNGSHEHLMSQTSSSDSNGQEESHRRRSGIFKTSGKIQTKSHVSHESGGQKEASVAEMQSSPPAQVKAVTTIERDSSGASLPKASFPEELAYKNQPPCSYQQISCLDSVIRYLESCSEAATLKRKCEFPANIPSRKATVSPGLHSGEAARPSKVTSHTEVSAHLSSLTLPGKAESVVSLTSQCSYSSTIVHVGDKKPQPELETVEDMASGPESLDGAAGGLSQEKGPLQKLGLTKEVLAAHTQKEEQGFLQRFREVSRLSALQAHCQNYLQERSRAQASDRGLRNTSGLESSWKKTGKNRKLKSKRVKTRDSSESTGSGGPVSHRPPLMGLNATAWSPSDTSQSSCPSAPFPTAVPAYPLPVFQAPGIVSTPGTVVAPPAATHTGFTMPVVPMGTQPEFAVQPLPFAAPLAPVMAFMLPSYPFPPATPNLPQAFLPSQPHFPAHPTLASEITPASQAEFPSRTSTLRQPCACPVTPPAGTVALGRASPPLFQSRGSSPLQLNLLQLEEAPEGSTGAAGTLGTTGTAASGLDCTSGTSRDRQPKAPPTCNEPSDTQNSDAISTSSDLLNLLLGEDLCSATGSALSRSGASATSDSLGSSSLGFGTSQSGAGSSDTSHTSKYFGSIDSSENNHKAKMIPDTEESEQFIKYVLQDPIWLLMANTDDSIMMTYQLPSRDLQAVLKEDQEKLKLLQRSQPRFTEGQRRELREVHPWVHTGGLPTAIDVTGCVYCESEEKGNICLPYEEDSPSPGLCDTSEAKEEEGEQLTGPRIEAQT

What was measured:
[1] = target: T1, Human Per2 with V5 tag, stably overexpressed in 293T cells (Per2-OE) (human) (UniProt O15055); test: co-IP; 293T cells stably overexpressing Per2-V5, transfected with HA-GSK3β wild type or S9A, collected 12 h after LDR (10 cGy); extract in 1x RIPA buffer, antibody on Protein A or G magnetic beads, overnight at 4°C
T1 sequence: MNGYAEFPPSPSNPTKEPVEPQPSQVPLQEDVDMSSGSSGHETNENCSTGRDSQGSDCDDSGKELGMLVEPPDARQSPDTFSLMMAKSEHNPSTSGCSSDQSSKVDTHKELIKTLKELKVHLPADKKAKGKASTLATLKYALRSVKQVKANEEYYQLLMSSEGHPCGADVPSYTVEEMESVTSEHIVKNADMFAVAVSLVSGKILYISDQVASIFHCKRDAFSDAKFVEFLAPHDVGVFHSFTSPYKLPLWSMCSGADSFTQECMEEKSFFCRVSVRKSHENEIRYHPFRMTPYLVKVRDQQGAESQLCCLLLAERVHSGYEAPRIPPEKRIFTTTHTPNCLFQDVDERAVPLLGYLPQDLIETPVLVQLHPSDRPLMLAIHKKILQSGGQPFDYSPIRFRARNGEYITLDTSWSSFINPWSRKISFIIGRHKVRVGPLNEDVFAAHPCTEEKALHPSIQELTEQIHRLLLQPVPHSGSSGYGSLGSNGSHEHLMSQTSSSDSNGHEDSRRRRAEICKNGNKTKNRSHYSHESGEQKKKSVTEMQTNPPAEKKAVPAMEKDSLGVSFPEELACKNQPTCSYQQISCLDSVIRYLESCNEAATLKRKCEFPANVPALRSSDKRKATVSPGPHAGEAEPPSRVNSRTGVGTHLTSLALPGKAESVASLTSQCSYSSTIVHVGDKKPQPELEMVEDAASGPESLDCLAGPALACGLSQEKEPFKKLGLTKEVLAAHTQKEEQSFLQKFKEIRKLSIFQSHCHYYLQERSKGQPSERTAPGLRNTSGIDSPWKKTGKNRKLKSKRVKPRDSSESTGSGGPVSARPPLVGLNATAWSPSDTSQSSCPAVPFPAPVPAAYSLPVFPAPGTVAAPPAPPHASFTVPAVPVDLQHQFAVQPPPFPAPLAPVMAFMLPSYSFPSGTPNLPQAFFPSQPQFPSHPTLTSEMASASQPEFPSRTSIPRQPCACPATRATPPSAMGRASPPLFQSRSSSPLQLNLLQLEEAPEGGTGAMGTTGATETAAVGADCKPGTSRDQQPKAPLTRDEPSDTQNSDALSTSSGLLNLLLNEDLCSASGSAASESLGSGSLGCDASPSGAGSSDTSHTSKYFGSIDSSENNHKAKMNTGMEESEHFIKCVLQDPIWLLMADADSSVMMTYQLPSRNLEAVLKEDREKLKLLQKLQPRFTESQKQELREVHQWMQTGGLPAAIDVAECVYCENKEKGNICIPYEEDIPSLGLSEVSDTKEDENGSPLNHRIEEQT

[2] = target: GSK3β phosphorylated at Ser9, mouse, endogenous in Per2wt/GSK3βwt MEFs (mouse (endogenous in MEFs)) (UniProt Q9WV60); test: co-IP; endogenous proteins of Per2wt/GSK3βwt MEFs, non-LDR control and 12 h after LDR (10 cGy); IP with anti-Per2 and blot with anti-pGSK3β(Ser9), and the reverse; 500 μg extract in 1x RIPA buffer, antibody on Protein A or G magnetic beads, overnight at 4°C

Substance: HA-tagged wild-type GSK3β, transfected into Per2-OE 293T cells (from UniProt P49841 1-420) (enzyme)
- binding [1]: binds

Substance: PERIOD 2 (PER2), mouse, endogenous in Per2wt/GSK3βwt MEFs (from UniProt O54943 1-1257)
- binding [2]: binds
